The assay has as its target lamin A/C (mouse (endogenous in mouse dermal fibroblasts)) (UniProt P48678). The assay is described as follows: co-IP; endogenous lamin A/C immunoprecipitated with the E1 anti-lamin A/C antibody from the soluble fraction of mouse dermal fibroblasts (IP buffer: 20 mM Tris-HCl pH 7.5, 150 mM NaCl, 2 mM EGTA, 2 mM MgCl2, 0.5% NP-40, 1 mM DTT, benzonase), western blot; Figure 4D: untransfected or control siRNA cells; Figure 5D: cells untreated or treated with rapamycin. Background: A western blot detects proteins with antibodies after separation by electrophoresis.

Chains of the proteins cited; added tags and fusions are not shown. Lines headed by an entry give the natural chain unless they say otherwise; changes in a name come on top. Residues count along the entry.
UniProt P48678, residues 1-647: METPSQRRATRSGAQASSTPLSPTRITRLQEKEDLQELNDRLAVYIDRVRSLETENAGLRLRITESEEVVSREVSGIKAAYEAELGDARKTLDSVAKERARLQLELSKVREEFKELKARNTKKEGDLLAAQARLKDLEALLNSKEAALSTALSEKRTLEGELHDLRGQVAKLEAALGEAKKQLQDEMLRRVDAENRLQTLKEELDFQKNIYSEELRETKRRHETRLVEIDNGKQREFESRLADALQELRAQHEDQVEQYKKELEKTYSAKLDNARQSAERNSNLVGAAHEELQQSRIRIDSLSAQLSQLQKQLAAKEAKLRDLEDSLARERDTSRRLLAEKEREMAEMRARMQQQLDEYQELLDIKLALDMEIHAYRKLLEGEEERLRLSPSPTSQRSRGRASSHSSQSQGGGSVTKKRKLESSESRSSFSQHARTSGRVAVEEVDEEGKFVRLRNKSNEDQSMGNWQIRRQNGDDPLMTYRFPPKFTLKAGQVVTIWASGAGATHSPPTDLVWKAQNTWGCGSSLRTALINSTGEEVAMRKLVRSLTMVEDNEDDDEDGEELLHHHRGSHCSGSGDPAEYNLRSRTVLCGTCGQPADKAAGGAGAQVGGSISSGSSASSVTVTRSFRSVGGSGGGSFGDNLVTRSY
UniProt Q61033: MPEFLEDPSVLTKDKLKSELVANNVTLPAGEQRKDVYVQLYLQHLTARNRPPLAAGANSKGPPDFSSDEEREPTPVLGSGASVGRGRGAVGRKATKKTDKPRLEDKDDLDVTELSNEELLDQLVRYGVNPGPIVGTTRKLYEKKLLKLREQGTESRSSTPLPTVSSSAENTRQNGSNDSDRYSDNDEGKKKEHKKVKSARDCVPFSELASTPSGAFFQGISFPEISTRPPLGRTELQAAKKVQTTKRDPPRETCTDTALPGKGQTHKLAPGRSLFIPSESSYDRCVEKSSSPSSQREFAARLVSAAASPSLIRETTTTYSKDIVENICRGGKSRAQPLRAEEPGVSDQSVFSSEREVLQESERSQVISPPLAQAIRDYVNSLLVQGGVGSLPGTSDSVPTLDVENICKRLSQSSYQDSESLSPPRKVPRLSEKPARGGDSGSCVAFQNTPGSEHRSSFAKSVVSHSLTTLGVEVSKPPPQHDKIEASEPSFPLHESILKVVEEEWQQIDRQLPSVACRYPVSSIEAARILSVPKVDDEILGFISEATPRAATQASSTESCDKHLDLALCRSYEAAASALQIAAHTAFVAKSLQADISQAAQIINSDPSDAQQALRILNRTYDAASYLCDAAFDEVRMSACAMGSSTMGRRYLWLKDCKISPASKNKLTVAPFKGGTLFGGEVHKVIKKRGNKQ

From paper PMC11417337 come the findings set out here.

No constants are given. Whether binding was seen depends on the method and setting. In cells and extracts the contact can be indirect.

“LAP2α ΔLEM-like-LEM∗ mutant (from UniProt Q61033) (domain or fragment)”: the binding entry is “no binding”.
